Substitutions are numbered along the chain they refer to. Names and notes keep the numbering of the source. Results are given in words; binding and its absence hold for the method and conditions named. In cells and extracts the contact can be indirect. Some entries that bind do so weakly or less than the wild type. Sequences can lack the tags named with a protein.

This note sets out measurements from paper doi:10.1101/2024.03.11.584206.

The experiment addresses T1, BASP1-tGFP (UniProt Q91XV3).
T1 sequence: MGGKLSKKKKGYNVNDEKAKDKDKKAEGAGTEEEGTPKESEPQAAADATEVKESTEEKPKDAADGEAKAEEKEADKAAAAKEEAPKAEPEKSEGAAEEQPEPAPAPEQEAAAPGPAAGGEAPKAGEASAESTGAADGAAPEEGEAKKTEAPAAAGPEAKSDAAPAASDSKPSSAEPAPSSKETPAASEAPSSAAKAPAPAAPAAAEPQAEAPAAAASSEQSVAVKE
Briefly: co-IP.

B1: PLPPR3 ICDm-His (membrane-tagged intracellular domain of PLPPR3, aa 284-716) (domain or fragment, UniProt Q7TPB0-1 284-716)
chain: QAPPAEKVPTPAPAKDALRALTQRGHESMYQQNKSVSTDELGPPGRLEGVPRPVAREKTSLGSLKRASVDVDLLAPRSPMGKEGMVTFSNTLPRVSTPSLDDPARRHMTIHVPLDASRSRQLIGEWKQKSLEGRGLGLPDEASPVHLRAPAEQVAEEEEEEEEEEEEEEEEEEEEGPVPPSLYPTVQARPGLGPRVILPPRPGPQPLVHIPEEGVQAGAGLSPKSSSSSVRAKWLSVAEKGGGPVAVAPSQPRVANPPRLLQVIAMSKAAGGPKAETASSSSASSDSSQYRSPSDRDSASIVTIDAHAPHHPVVHLSAGSTPWEWKAKVVEGEGSYELGDLARGFRSSCKQPGMGPGSPVSDVDQEEPRFGAVATVNLATGEGLPPPGASEGALGAGSRESTLRRQVGGLAEREVEAEAESYYRRMQARRYQD
Take B1: the binding entry is on record as “binds”.

B2: PLPPR3-ICDm-S351A (domain or fragment, UniProt Q7TPB0-1 284-716)
chain: B1 chain with S68A
As for B2, the binding result is listed as “binds”.
